PubChem BioAssay AID1259425, University of Nebraska Medical Center – 2018

- Aim: 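Compare each knockdown with KSR1 silencing using changes in marker transcripts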 (primary screen)
- System: HCT116 human colon cancer cells
- Knock-down reagent: siRNA pool against human genes, 50 nM siRNA
- Read-out: 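mRNA of six signature genes measured together by branched-DNA assay after 50 nM siRNA pool, blank removed, divided by geometric mean of two housekeeping genes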
- Scale: BNIP3L mRNA: higher = more BNIP3L transcript after knockdown; NDRG1 mRNA: higher = more NDRG1 transcript after knockdown; BNIP3 mRNA: higher = more BNIP3 transcript after knockdown; ALDOC mRNA: higher = more ALDOC transcript after knockdown; ACSL5 mRNA: higher = more ACSL5 transcript after knockdown
Shown is one part, drawn at random, of about 14,000 deposited reagents. The record does not give: the time to read-out.

Target gene | BNIP3L mRNA, set 1 | NDRG1 mRNA, set 1 | BNIP3 mRNA, set 1 | ALDOC mRNA, set 1 | ACSL5 mRNA, set 1
KCNG3 | 0.142 | 0.295 | 0.285 | 0.033 | 0.154
CILP | 0.19 | 0.453 | 0.353 | 0.0606 | 0.261
GDPD2 | 0.0498 | 0.185 | 0.156 | 0.0489 | 0.149
DTX1 | 0.0893 | 0.154 | 0.18 | 0.0223 | 0.13
NDUFA1 | 0.0515 | 0.266 | 0.199 | 0.0318 | 0.215
RANBP6 | 0.0832 | 0.188 | 0.196 | 0.0222 | 0.168
POLA1 | 0.105 | 0.303 | 0.229 | 0.0366 | 0.0735
SARAF | 0.0398 | 0.0948 | 0.242 | 0.0118 | 0.242
CEP97 | 0.153 | 0.253 | 0.353 | 0.0408 | 0.223
OSM | 0.0542 | 0.18 | 0.328 | 0.0362 | 0.133
IGDCC3 | 0.458 | 0.654 | 0.963 | 0.236 | 0.644
CCDC121 | 0.0769 | 0.34 | 0.282 | 0.0354 | 0.273
CHLSN | 0.236 | 0.282 | 0.314 | 0.129 | 0.492
AHI1 | 0.149 | 0.395 | 0.305 | 0.0314 | 0.318
MRGPRX3 | 0.326 | 0.182 | 0.588 | 0.0621 | 0.124
CCNB2 | 0.0607 | 0.208 | 0.266 | 0.0175 | 0.0946
CHST2 | 0.138 | 0.126 | 0.262 | 0.0232 | 0.108
DRG2 | 0.103 | 0.159 | 0.322 | 0.0134 | 0.262
NUP98 | 0.138 | 0.143 | 0.185 | 0.069 | 0.0892
TRMT1 | 0.111 | 0.611 | 0.396 | 0.0215 | 0.166
TMEM87A | 0.0445 | 0.145 | 0.435 | 0.0163 | 0.185
CSTA | 0.195 | 0.134 | 0.308 | 0.0581 | 0.309
PARVA | 0.127 | 0.188 | 0.237 | 0.00987 | 0.309
ITGAE | 0.0485 | 0.106 | 0.281 | 0.0184 | 0.07
COPZ1 | 0.683 | 0.826 | 0.949 | 0.0543 | 0.221
SLC28A1 | 0.131 | 0.0519 | 0.273 | 0.0331 | 0.314
ASTN1 | 0.123 | 0.169 | 0.282 | 0.0366 | 0.11
PLTP | 0.0645 | 0.139 | 0.211 | 0.0174 | 0.264
PPFIA1 | 0.102 | 1.34 | 0.222 | 0.0438 | 0.211
IRX6 | 0.256 | 0.511 | 0.647 | 0.199 | 0.377
CA11 | 0.0746 | 0.201 | 0.23 | 0.0266 | 0.137

Quoted from above (3 entries):
Target gene | BNIP3L mRNA, set 1 | NDRG1 mRNA, set 1 | BNIP3 mRNA, set 1 | ALDOC mRNA, set 1 | ACSL5 mRNA, set 1
DTX1 | 0.0893 | 0.154 | 0.18 | 0.0223 | 0.13
NDUFA1 | 0.0515 | 0.266 | 0.199 | 0.0318 | 0.215
RANBP6 | 0.0832 | 0.188 | 0.196 | 0.0222 | 0.168

Further reagents:
Target gene | BNIP3L mRNA, set 1 | NDRG1 mRNA, set 1 | BNIP3 mRNA, set 1 | ALDOC mRNA, set 1 | ACSL5 mRNA, set 1
RNASEH2B | 0.113 | 0.225 | 0.359 | 0.0177 | 0.209
RXFP1 | 0.096 | 0.0672 | 0.262 | 0.00704 | 0.178
KCNN4 | 0.0945 | 0.035 | 0.213 | 0.011 | 0.147
BPNT1 | 0.0739 | 0.248 | 0.19 | 0.0169 | 0.193
TTBK1 | 0.246 | 0.204 | 0.322 | 0.0134 | 0.155
PRKCD | 0.0849 | 0.447 | 0.419 | 0.000848 | 0.308
SLC39A4 | 0.0691 | 0.213 | 0.481 | 0.0141 | 0.31
ZNF408 | 0.113 | 0.236 | 0.308 | 0.0564 | 0.404
ABI3BP | 0.188 | 0.302 | 0.538 | 0.0266 | 0.219
PDE3A | 0.0837 | 0.0687 | 0.299 | 0.0298 | 0.115
NME7 | 0.155 | 0.256 | 0.432 | 0.0209 | 0.245
RETN | 0.11 | 0.138 | 0.179 | 0.0169 | 0.159
ALDOA | 0.0349 | 0.429 | 0.2 | -0.00606 | 0.2
SLC4A8 | 0.183 | 0.199 | 0.329 | 0.0522 | 0.13
GPATCH8 | 0.136 | 0.155 | 0.529 | 0.0348 | 0.236
CEP83 | 0.0901 | 0.397 | 0.469 | 0.0159 | 0.159
FGF2 | 0.11 | 0.149 | 0.21 | 0.0351 | 0.11
SERBP1 | 0.0844 | 0.243 | 1.32 | 0.029 | 0.169
SPRY2 | 0.0698 | 0.206 | 0.256 | 0.0219 | 0.113
USP18 | 0.0833 | 0.111 | 0.226 | 0.00856 | 0.128
GSTM3 | 0.0649 | 0.184 | 0.246 | 0.0109 | 0.133
TMTC4 | 0.304 | 0.169 | 0.433 | 0.0667 | 0.0648
FGFBP2 | 0.27 | 0.253 | 0.335 | 0.0684 | 0.355
GSKIP | 0.206 | 0.545 | 0.705 | 0.0307 | 0.404
ARMCX5 | 0.129 | 0.142 | 0.401 | 0.0193 | 0.209
KCNC1 | 0.201 | 0.3 | 0.35 | 0.0364 | 0.115
PDGFRL | 0.0523 | 0.064 | 0.293 | 0.0213 | 0.132
PTPRA | 0.04 | 0.584 | 0.21 | 0.0226 | 0.282
FBXO46 | 0.105 | 0.192 | 0.235 | 0.019 | 0.0941
TNPO1 | 0.17 | 0.157 | 0.247 | 0.032 | 0.0569
DEPDC1 | 0.169 | 0.432 | 0.399 | 0.0127 | 0.149
GOLIM4 | 0.109 | 0.233 | 0.244 | 0.026 | 0.16
